{"source": "patent US8785600B2", "about": "“Anti-GCC antibody molecules and related compositions and methods” (Millennium Pharmaceuticals, Inc., priority 2009, dated 2014)", "system": "293-GCC#2 tumors", "experiment": "PD study: phosphohistone H3 positive tumor cells after single iv dose", "format": "in vivo, mice", "conditions": "single dose 150 ug/kg; peaks at 24 hours post-injection", "description": "An alternative tumor model used 293-GCC#2 cells. A PD study for 5F9 ADCs in 293-GCC#2 tumor bearing mice was performed. Mice were dosed with single doses of 5F9vcMMAF at 75 ug/kg or 150 ug/kg and serum was taken at timepoints from 1 hr through 4 days for PD analysis of phosphohistone H3 to test antimitotic effects of the toxin on tumor cells. Phospho-histone H3 was detected by antibody (Upstate Biotechnology, now Millipore, Billerica, Mass.) staining of paraffin embedded sections of tumors.\nSimilar studies measured the phosphohistone levels in 293-GCC#2 tumor-bearing mice treated with 5F9vcMMAF, 5F9-SPDB-DM4 and 5F9-SMCC-DM1. Mice were dosed with single doses at 150 ug/kg and serum was taken at timepoints from 1 hr through 21 days for PK analysis of both total antibody and toxin-conjugated antibody. The percentage of phosphohistone H3 positive cells in 293-GCC#2 tumors increased in response to all three ADCS: 5F9vcMMAF, 5F9-SMCC-DM1 and 5F9-SPDB-DM4. Maximal phosphohistone H3 levels were 3- to 5-fold increased over baseline, with peaks at 24 hours post-injection.", "note": "Some entries share one result that the patent states for a list of compounds."}
{"substance": "5F9-vcMMAF: 5F9 anti-GCC antibody molecule conjugated with mc-vc-MMAF", "values": [{"measurement": "Maximal phosphohistone H3 levels, fold increased over baseline", "value": "3- to 5 fold"}]}
